Measured values from patent US20250339817A1, “A PROCESS FOR THE NITRIC OXIDE ABATEMENT THROUGH BIOLOGICAL TREATMENTS” (FUNDACIÓ EURECAT, priority 2022, published 2025).

Legend:
[1] = Chemical absorption and biological reduction (CABR) batch tests; settings: liquid phase, 1 hour and 24 hours
[2] = Nitric oxide (NO) absorption with pure NAPs (batch tests); assay type: physicochemical; settings: pure NAP, increasing molarity
Experimental: Batch tests with pure NAPs were performed in 120 mL glass amber vials with an initial concentration of NO between 4500 and 5100 ppmv and different amounts of NAPs (DES, SO, HTX, HNO and HEX). For this experiment each NAP was added to a vial containing NO. Each NAP was tested alone. The results were compared with respect to a blank containing deionized water instead of NAP. All experiments were carried out at a temperature of 25° C. and agitation of 100 rpm in an incubator, five replicates were made per point. Gas phase analysis (NO and NO2) was performed at the beginning of the experiment and at the end (1 hour).
NO and NO2 concentrations in the gas phase were measured by Fourier Transform Infrared Spectroscopy (FTIR) from an aliquot of 1 mL (PerkinElmer Inc., Spain). The NO removal efficiency in the tests was calculated from the difference in NO concentration from the beginning and end of each test. Nitrogen compounds and chemical oxygen demand (COD) were analyzed in liquid samples after centrifuged at 15,000 rpm and filtration (0.22 μm) to separate the NAP found in the sample. Nitrite and nitrate were measured using Hach Lange kits (LCK342 and LCK 339, respectively, Hach Lange, Germany). COD was measured using Hach Lange kits (LCK114 and LCK 214, respectively, Hach Lange, Germany).

[3] = Mass transfer gas-to-liquid batch tests in a three-phase system (CO2/NO/Aqueous/NAP), NO; assay type: physicochemical; settings: phosphate buffer pH 8, 10% v/v NAP
Experimental: Mass transfer gas-to-liquid batch tests with a mixture of gases with CO2 and NO were performed to determine the mass transfer rate and selectivity of these gases in the presence of NAP and aqueous phase. The results were compared with respect to blank (water or phosphate buffer at pH 8 without NAP). The initial samples were filled with CO2 to reach a peak transmittance area between 8010 and 8940 cm^−1 and NO to reach a peak of transmittance area between 11 and 14 cm^−1, then 10 mL of each NAP (HTX, HNO and HEX) was injected. Tests were performed with a phosphate buffer at pH 8 at a 10% v/v ratio of NAP/aqueous phase. All experiments were performed in 500 mL amber glass bottles previously prepared in a glove box to maintain an inert atmosphere and carried out per at least triplicate at a temperature of 25° C. and 100 rpm orbital shaking in an incubator. CO2 and NO in the gas phase were measured at the beginning and at the end of the test. Also, the liquid phase was monitored for pH, nitrite (NO2^−) and nitrate (NO3^−) at the end of each test.
NO and CO2 peak area in the gas phase were measured by Fourier Transform Infrared Spectroscopy (FTIR). In these experiments the peak area was analyzed and not the concentration. Therefore, the performance of the tests will be given in percent (%) area reduction, which is defined in Eq 1. Nitrogen compounds were analyzed in liquid samples after being centrifuged at 15,000 rpm and filtration (0.22 μm) to separate the NAP found in the sample. NO2^− and NO3^− were measured using Hach Lange kits (LCK342 and LCK 339, respectively, Hach Lange, Germany).
The initial area (Areainitial) is a quantitative measure of the transmittance at certain given wavelengths (NO=1730-1930 cm^−1; CO2=2230-2400 cm^−1) and correlates the presence of the compound in the sample at time=0 h. The final area (Areafinal) is a quantitative measure of the transmittance at the given wavelengths (NO=between 1730-1930 cm^−1; CO2=2230-2400 cm-1) and correlates with the presence of the compound in the sample at time=1 h.

biomass from the SBR = assay: Long-term biodegradability test (ultimate BOD, OECD 301 F)

Compound | Accumulation of nitrite and nitrate in the system [1] | moles of absorber added to reach a similar NO removal [2] [mol] | concentration of nitrogenous compounds (NO2− and NO3−) in the liquid phase [3] [N-mg/L] | Degradation in the 28 days of the test (biomass from the SBR) [%]
CCCCCCCCCCCCCCCC [HEX, n-hexadecane] | non-accumulation | 0.068 | 10±1 | –
CC(CC(C)(C)C)CC(C)(C)CC(C)(C)C (stereo not drawn) [HNO, 2,2,4,4,6,8,8-heptamethylnonane] | non-accumulation | 0.070 | 18±2 | –
C[SiH](O[Si](C)(C)C)O[Si](C)(C)C [HTX, 1,1,1,3,5,5,5-heptamethyl-trisiloxane] | – | 0.076 | 14±2 | 7
